Literature values as cited in patent US8509867B2, “Non-invasive measurement of analytes” (Cercacor Laboratories, Inc., priority 2002, dated 2013).
For at least one compound, name, drawing or mass did not settle the structure.

Conditions: in water

In the case of `CC1=C(CCC(=O)O)c2cc3[nH]c(cc4nc(cc5[nH]c(cc1n2)c(C)c5C(C)O)C(C)=C4C(C)O)c(C)c3CCC(=O)O` (centres unmarked) [Hematoporphyrin], the “concentration above which predominantly aggregated” value is given as “above 10 μM” and the “concentration at which aggregation starts” value is given as 1000 nM.
